Experimental data from the supplement of paper PMC8728848.
The other results are listed elsewhere or left out.

Columns and labels:
Experiment in all cases: glycan array binding signal (z-score within array); higher = stronger binding
Details in all cases: glycan notation: IUPAC condensed, linker removed
[1] = biological target: GlcNAc(b1-3)Gal(b1-4)GlcNAc(b1-3)GalNAc
Method in brief: (§1)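 The binding signal is a Z-score computed within each array and averaged over linkers. Arrays of the same protein sequence at different concentrations or buffers were also averaged together. Data originate from 3228 arrays in the Consortium for Functional Glycomics database, kept only where the protein sequence was available.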

[2] = biological target: GlcNAc(b1-3)Gal(b1-4)GlcNAc(b1-3)[GlcNAc(b1-3)Gal(b1-4)GlcNAc(b1-3)]GalNAc
Method in brief: as §1

[3] = biological target: GlcNAc(b1-3)Gal(b1-4)GlcNAc(b1-6)[Gal(b1-3)]GalNAc
Method in brief: as §1

[4] = biological target: GlcNAc(b1-3)Gal(b1-4)GlcNAc(b1-6)[GlcNAc(b1-3)Gal(b1-3)]GalNAc
Method in brief: as §1

[5] = biological target: GlcNAc(b1-3)Gal(b1-4)GlcNAc(b1-6)[GlcNAc(b1-3)]Gal(b1-4)GlcNAc
Method in brief: as §1

GlcNAc(b1-3)GalNAc = biological target: GlcNAc(b1-3)GalNAc
Method in brief: as §1

GlcNAc(b1-3)Man = biological target: GlcNAc(b1-3)Man
Method in brief: as §1

[6] = biological target: GlcNAc(b1-3)[GlcNAc(b1-4)][GlcNAc(b1-6)]GlcNAc
Method in brief: as §1

[7] = biological target: GlcNAc(b1-3)[GlcNAc(b1-6)]Gal(b1-4)GlcNAc
Method in brief: as §1

[8] = biological target: GlcNAc(b1-3)[GlcNAc(b1-6)]GalNAc
Method in brief: as §1

[9] = biological target: GlcNAc(b1-4)Gal(b1-4)GlcNAc
Method in brief: as §1

GlcNAc(b1-4)GlcNAc = biological target: GlcNAc(b1-4)GlcNAc
Method in brief: as §1

[10] = biological target: GlcNAc(b1-4)GlcNAc(b1-4)GlcNAc
Method in brief: as §1

[11] = biological target: GlcNAc(b1-4)GlcNAc(b1-4)GlcNAc(b1-4)GlcNAc(b1-4)GlcNAc
Method in brief: as §1

[12] = biological target: GlcNAc(b1-4)GlcNAc(b1-4)GlcNAc(b1-4)GlcNAc(b1-4)GlcNAc(b1-4)GlcNAc
Method in brief: as §1

[13] = biological target: GlcNAc(b1-4)[GlcNAc(b1-6)]GalNAc
Method in brief: as §1

[14] = biological target: GlcNAc(b1-6)Gal(b1-4)GlcNAc
Method in brief: as §1

GlcNAc(b1-6)GalNAc = biological target: GlcNAc(b1-6)GalNAc
Method in brief: as §1

[15] = biological target: GlcNAc6S(b1-3)Gal(b1-4)GlcNAc
Method in brief: as §1

Kdn(a2-3)Gal(b1-3)GalNAc = biological target: Kdn(a2-3)Gal(b1-3)GalNAc
Method in brief: as §1

Kdn(a2-3)Gal(b1-3)GlcNAc = biological target: Kdn(a2-3)Gal(b1-3)GlcNAc
Method in brief: as §1

Kdn(a2-3)Gal(b1-4)Glc = biological target: Kdn(a2-3)Gal(b1-4)Glc
Method in brief: as §1

Kdn(a2-3)Gal(b1-4)GlcNAc = biological target: Kdn(a2-3)Gal(b1-4)GlcNAc
Method in brief: as §1

[16] = biological target: Kdn(a2-3)Gal(b1-4)[Fuc(a1-3)]GlcNAc
Method in brief: as §1

Kdn(a2-6)Gal(b1-4)GlcNAc = biological target: Kdn(a2-6)Gal(b1-4)GlcNAc
Method in brief: as §1

[17] = biological target: Man(a1-2)Man(a1-2)Man(a1-3)Man
Method in brief: as §1

[18] = biological target: Man(a1-2)Man(a1-2)Man(a1-6)[Man(a1-3)]Man
Method in brief: as §1

Man(a1-2)Man(a1-3)Man = biological target: Man(a1-2)Man(a1-3)Man
Method in brief: as §1

[19] = biological target: Man(a1-2)Man(a1-3)[Man(a1-2)Man(a1-6)]Man
Method in brief: as §1

[20] = biological target: Man(a1-2)Man(a1-3)[Man(a1-2)Man(a1-6)]Man(a1-6)[Man(a1-2)Man(a1-2)Man(a1-3)]Man
Method in brief: as §1

B1: Blon0732mut (Bifidobacterium longum) (protein)
chain: MPTSEHKADDATRHLTLIPAPVTLEYTHGTALIGPLVTIEDADQSWETLPIEQLSDELRHRYGVTVLRRRTHGTVISLGLDSRLAHDEYTLDVSESEGIRVRGGGESGLRYGLQTLRQIIGQTSRAIPCLHIQDKPAFAVRAYSLDVTRGRVPTMEFLTWFVDQLALYKYNQFQLYVEHAFAFVELSEAWRGTDPLTAADITYLDEYCARRGIELVPSLATFGHMYMNLRTREHRGLGEFPEDADRPFSFIERMEHHTLNAADPKAHDFASRLIEEYAPLFRSKSFNIGGNETFDLGRGRSAQDAPEAGRDELYAGFVRDLCETLARHGRQPMLWADIALESPRTMDLLPGDITMLNWMYEPQIDESKIQTIATQGRRQFVCPAVRAWSRFFPDYAGAWLNTYHMALAGTKYDAEGMVVTDWGDYGHVNDPRLSVPGLCYGAQNAWNPIEIDAHEMNRRISALVYGDESGRIMDCLARIDSDGVSFPWDLAVQVLELEYGSGTGALNMDVAACMERSSGGKLTLDRTLGCDDARRRMLQWNRERIERRRDCDQVLRDCGDAFAGLDKGGLTAEFLSVMLDGQRLFNELGEELLALADGKDVGSGANRLAADLELWFERYRAQWLSVGRHAELARIAHVVWSLADILRRGAL
B1 was tested, and the “glycan array binding signal (z-score)” value [1] was -0.579, the “glycan array binding signal (z-score)” value [2] was -0.125 and the “glycan array binding signal (z-score)” value [3] was -0.135. For the same binder, the “glycan array binding signal (z-score)” value [4] was -0.19, the “glycan array binding signal (z-score)” value [5] was -0.46 and the “glycan array binding signal (z-score)” value (GlcNAc(b1-3)GalNAc) was -0.199. For the same binder, the “glycan array binding signal (z-score)” value (GlcNAc(b1-3)Man) was -0.762, the “glycan array binding signal (z-score)” value [6] was 5.26 and the “glycan array binding signal (z-score)” value [7] was -0.552. For the same binder, the “glycan array binding signal (z-score)” value [8] was -0.405, the “glycan array binding signal (z-score)” value [9] was 0.339 and the “glycan array binding signal (z-score)” value (GlcNAc(b1-4)GlcNAc) was -0.319. The “glycan array binding signal (z-score)” value [10] was -0.223, the “glycan array binding signal (z-score)” value [11] was -0.692 and the “glycan array binding signal (z-score)” value [12] was -0.019. The “glycan array binding signal (z-score)” value [13] was -0.758, the “glycan array binding signal (z-score)” value [14] was 0.074 and the “glycan array binding signal (z-score)” value (GlcNAc(b1-6)GalNAc) was 0.164. For the same binder, the “glycan array binding signal (z-score)” value [15] was 0.664, the “glycan array binding signal (z-score)” value (Kdn(a2-3)Gal(b1-3)GalNAc) was -0.565 and the “glycan array binding signal (z-score)” value (Kdn(a2-3)Gal(b1-3)GlcNAc) was -0.602. The “glycan array binding signal (z-score)” value (Kdn(a2-3)Gal(b1-4)Glc) was -0.647, the “glycan array binding signal (z-score)” value (Kdn(a2-3)Gal(b1-4)GlcNAc) was 0.494 and the “glycan array binding signal (z-score)” value [16] was 0.017. For the same binder, the “glycan array binding signal (z-score)” value (Kdn(a2-6)Gal(b1-4)GlcNAc) was -0.04, the “glycan array binding signal (z-score)” value [17] was 0.059 and the “glycan array binding signal (z-score)” value [18] was 0.626. For the same binder, the “glycan array binding signal (z-score)” value (Man(a1-2)Man(a1-3)Man) was -0.346, the “glycan array binding signal (z-score)” value [19] was -0.328 and the “glycan array binding signal (z-score)” value [20] was -0.024.
